Patent publication EP1552850A2, “A combination of FBPase inhibitors and insulin sensitizers for the treatment of diabetes” (priority 1998, dated 2000)
For at least one compound, name, drawing or mass did not settle the structure.

Assays:
type 2 diabetics = details: clinical trials; cited from earlier work
ZDF rat = experiment: Combination treatment with Troglitazone and Compound G or Compound J in the ZDF rat - blood glucose; assay type: in vivo, Zucker Diabetic Fatty (ZDF) rat; details: food admixture dose finding

## CCc1ccc(CCOc2ccc(CC3SC(=O)NC3=O)cc2)nc1 (centres unmarked) [Pioglitazone]
Type 2 diabetics
  average HbAlc reductions: 0.6%

## Cc1c(C)c2c(c(C)c1O)CCC(C)(COc1ccc(CC3SC(=O)NC3=O)cc1)O2 (centres unmarked) [Troglitazone, reference compound]
ZDF rat
  blood glucose lowering, pilot studies: normalize blood glucose levels
